# Reference: paper doi:10.1101/481754
# Amino acid sequences for entries named in this document (tags omitted).
# UniProt O43399: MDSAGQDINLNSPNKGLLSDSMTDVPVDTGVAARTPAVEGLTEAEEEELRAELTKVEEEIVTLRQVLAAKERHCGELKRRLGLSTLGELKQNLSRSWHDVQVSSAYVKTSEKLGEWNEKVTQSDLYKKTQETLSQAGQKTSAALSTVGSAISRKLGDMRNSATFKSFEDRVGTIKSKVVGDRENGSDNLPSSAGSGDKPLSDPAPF
# UniProt P51148: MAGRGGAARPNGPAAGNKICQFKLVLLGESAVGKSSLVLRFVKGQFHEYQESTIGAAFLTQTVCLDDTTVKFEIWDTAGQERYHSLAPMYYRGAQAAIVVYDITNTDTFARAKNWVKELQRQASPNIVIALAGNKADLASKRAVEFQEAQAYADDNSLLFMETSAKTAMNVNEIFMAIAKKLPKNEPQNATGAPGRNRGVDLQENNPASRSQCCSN
# UniProt P61019: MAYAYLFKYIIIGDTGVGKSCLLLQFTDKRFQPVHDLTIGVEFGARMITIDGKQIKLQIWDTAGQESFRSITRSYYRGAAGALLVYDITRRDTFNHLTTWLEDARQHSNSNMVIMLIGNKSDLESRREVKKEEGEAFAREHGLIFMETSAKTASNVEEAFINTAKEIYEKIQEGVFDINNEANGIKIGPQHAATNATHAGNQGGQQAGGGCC
# Results are given in words; binding and its absence hold for the method and conditions named. In cells and extracts the contact can be indirect. These calls come from enrichment with a bait or labelling near it, and not all partners need be listed.
# Target: GFP-TPD54 (Tumor Protein D54) (human) (UniProt O43399)
# Experiment: affinity purification with mass spectrometry
row,Molecule,binding
1,Rab5c (from UniProt P51148 1-216),binds
2,Rab2a (from UniProt P61019 1-212),binds
3,"TPD52 (Tumor Protein D52) (protein, UniProt P55327 1-224) MDCREMDLYEDYQSPFDFDAGVNKSYLYLSPSGNSSPPGSPTLQKFGLLRTDPVPEEGEDVAATISATETLSEEEQEELRRELAKVEEEIQTLSQVLAAKEKHLAEIKRKLGINSLQELKQNIAKGWQDVTATSAYKKTSETLSQAGQKASAAFSSVGSVITKKLEDVKNSPTFKSFEEKVENLKSKVGGTKPAGGDFGEVLNSAANASATTTEPLPEKTQESL",binds
4,"TPD53 (protein, UniProt Q16890 1-204) MEAQAQGLLETEPLQGTDEDAVASADFSSMLSEEEKEELKAELVQLEDEITTLRQVLSAKERHLVEIKQKLGMNLMNELKQNFSKSWHDMQTTTAYKKTHETLSHAGQKATAAFSNVGTAISKKFGDMSYSIRHSISMPAMRNSPTFKSFEERVETTVTSLKTKVGGTNPNGGSFEEVLSSTAHASAQSLAGGSRRTKEEELQC",binds
